From PMC9838217, “Structure of SALL4 zinc finger domain reveals link between AT-rich DNA binding and Okihiro syndrome”
The exact form of at least one protein or probe is not confirmed. At least one verdict rests on a figure or table, not on a statement of the authors. Protein sequences can lack the tags named with them.

Biological target: T1, SALL4 ZFC4 WT (Mus musculus) (UniProt Q8BX22)
T1 sequence (looked up): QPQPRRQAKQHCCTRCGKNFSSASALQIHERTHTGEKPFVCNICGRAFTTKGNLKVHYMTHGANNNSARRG
Assay: SAXS
Conditions: ZFC4-dsDNA complex; recombinant protein; residues 870-940

Does “CATATTAATATC (double strand) [SAXS AT-rich dsDNA]” bind?
Result: binds
